Assay results taken from the supplement of paper PMC10338343.
± gives the standard deviation. Some of the results follow. Many of these values have a large error.

system: EfPiwi piRISC loaded with L1MC piRNA (26 nt); assay: pre-steady-state target cleavage rate (min^-1); guide: L1MC piRNA 5'p-UAACUAAAUACUAUGCAAGCUGUAGG; MIWI and MILI are mouse PIWI proteins and EfPiwi is from a freshwater sponge; tags in brackets are library labels; higher = faster piRNA-guided slicing of the target; settings: auxiliary factor: 500 nM Ephydatia muelleri Gtsf1
Procedure: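 Cleave-'n-Seq: a library of target RNAs (target site in constant flanks) at […] was incubated with 1 nM active freshwater sponge Ephydatia fluviatilis Piwi piRISC (synthetic 5'-monophosphorylated piRNA guide) with or without 500 nM EmGtsf1 at 33 °C for 1 min to 16 h. Uncleaved targets were sequenced and the pooled three trials fitted to a burst-and-steady-state model to give the pre-steady-state cleavage rate (min^-1). Sequence is the target site only. Fits with R² ≤ 0 are excluded.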

Sequence	pre-steady-state target cleavage rate
UCCUGCUACAGGUUGCAUAGAAUUUAGUUA	0.00649 ± 0.0018
UCCUGGAUGUCGAAGCAUAGUAAAUAGUUA	0.000218 ± 0.022
UCCUGGAUGUGCUUGCAUAUUAUUUAGUUA	0.00647 ± 0.0022
UCCUGGAUGUCGAACGAUACGUAUUUAGUUA	< 0.0001
UCCUGGAUGUGCUUGCAUAGUAUAUAGUUA	0.00285 ± 0.0034
UCCUGCUAGAGGUUGCAUAGUAUUUAGUUA	0.00977 ± 0.0027
UCCUGGUACAGCUUGCAUAGUAUUUGAGUUA	0.00306 ± 0.0023
UCCUGGUACUCGUUGCAUAGUAUUUUCAAA	0.00025 ± 0.025
UCCUGGAUGUCGAUGCUAAGUAUUUAGUUA	0.000271 ± 0.0094
UCCUGGUACAGCUUGCAUAGAUAUUUCAAA	0.000749 ± 0.0066
UCCUGGAUGUCCUUGCAUAGAUUUUAGUUA	0.000296 ± 0.015
UCCUGGAACAGCUUGCAUAGUUAAUAGAAA	0.00102 ± 0.0044
UCCUCCUACAGCUUGCAAUGUAUUUACAAA	0.00167 ± 0.006
UCCUGGAUCAGCUUGCAUAGUAUAAAGUUA	0.00752 ± 0.0027
UCCUGGAUGUGCUUGCAGAGUAUUUAGUUA	0.00217 ± 0.0036
UCCUGGAUGUCGAUGCACAGUAUUUAGUUA	0.00158 ± 0.0046
UCCUGGAUGAGCUUGCAUAGUAAUUAGAAA	0.00162 ± 0.0032
UCCUGGAACAGGAUGCAUAGUAUUUAGUUA	0.00753 ± 0.0018
UCCUGGAUCAGCUUGCAUAGUAUUUUGUAA	0.00202 ± 0.0021
UCCUGGAUGUCGAACGUAAGGUAUUUAGUUA	0.000102 ± 0.03
UCCUGCUACAGCUUGCAAAGUAUUUUCAAA	0.00145 ± 0.0034
UCCUGGAUGUCGAAGCAUAGUAUUAUCUUA	0.000251 ± 0.013
UCCUGGAUCAGCUUGCAUAGUAUAAAGAAA	0.00121 ± 0.0029

same assay, conditions: auxiliary factor: none (no Gtsf1)

Sequence	pre-steady-state target cleavage rate
UCCUGCUACAGGUUGCAUAGAAUUUAGUUA	0.00101 ± 0.0083
UCCUGGAUGUGCUUGCAUAUUAUUUAGUUA	0.00231 ± 0.0056
UCCUGGAUGUGCUUGCAUAGUAUAUAGUUA	0.000896 ± 0.009
UCCUGCUAGAGGUUGCAUAGUAUUUAGUUA	0.000765 ± 0.013
UCCUGGUACUCGUUGCAUAGUAUUUUCAAA	0.000756 ± 0.011
UCCUGGAUGUCGAUGCUAAGUAUUUAGUUA	0.000166 ± 0.043
UCCUGGUACAGCUUGCAUAGAUAUUUCAAA	0.000339 ± 0.028
UCCUGGAUGUCGAUGCAUAGUUUAUAGUUA	0.000122 ± 0.03
UCCUGCUACAGCUUGCAUUGUAUUUAGAUA	0.000335 ± 0.016
UCCUGGAACAGCUUGCAUAGUUAAUAGAAA	0.000563 ± 0.013
UCCUCCUACAGCUUGCAAUGUAUUUACAAA	0.000185 ± 0.027
UCCUGGAUGUCGAUGCACAGUAUUUAGUUA	< 0.0001
UCCUGGAUGAGCUUGCAUAGUAAUUAGAAA	< 0.0001
UCCUGGAUCAGCUUGCAUAGUAUUUUGUAA	0.000136 ± 0.03
UCCUGGAUGUCGAACGUAAGGUAUUUAGUUA	0.00015 ± 0.033
UCCUGCUACAGCUUGCAAAGUAUUUUCAAA	0.000166 ± 0.02
